Some of the results follow.
What was measured:
Test in all cases: log2 fold change, soluble protein after heating vs DMSO (PISA); higher = thermal stabilisation; K562 cells, 10 uM, 30 min; active = over 0.2 and 3.5 SD of the protein, either way, in both replicates (recomputed)
[1] = compound: Cc1ccc(NC(=O)c2ccc(CN3CC[C@H](N(C)C)C3)c(C(F)(F)F)c2)cc1Nc1nccc(-c2cncnc2)n1 [bafetinib]
Summary of the method: (§1)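 K562 cells at 2×10^6 cells/mL were exposed to 10 μM compound for 30 min, then aliquots were heated for 3 min across 48°C-58°C, pooled, and extracted in PBS containing 0.5% NP-40 at 4°C. The supernatant after 21,000xg for 90 min was taken as soluble protein and measured by TMTpro 16plex LC-MS/MS with channel sums equalised. Thermal stability is reported relative to control samples, with values from duplicates. Fold changes are given on a log2 scale.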

Sequences of proteins named here, by UniProt entry; tags and fusion partners are left off. A change or cut given only in a name is not applied to a line headed by its entry.
UniProt P33240: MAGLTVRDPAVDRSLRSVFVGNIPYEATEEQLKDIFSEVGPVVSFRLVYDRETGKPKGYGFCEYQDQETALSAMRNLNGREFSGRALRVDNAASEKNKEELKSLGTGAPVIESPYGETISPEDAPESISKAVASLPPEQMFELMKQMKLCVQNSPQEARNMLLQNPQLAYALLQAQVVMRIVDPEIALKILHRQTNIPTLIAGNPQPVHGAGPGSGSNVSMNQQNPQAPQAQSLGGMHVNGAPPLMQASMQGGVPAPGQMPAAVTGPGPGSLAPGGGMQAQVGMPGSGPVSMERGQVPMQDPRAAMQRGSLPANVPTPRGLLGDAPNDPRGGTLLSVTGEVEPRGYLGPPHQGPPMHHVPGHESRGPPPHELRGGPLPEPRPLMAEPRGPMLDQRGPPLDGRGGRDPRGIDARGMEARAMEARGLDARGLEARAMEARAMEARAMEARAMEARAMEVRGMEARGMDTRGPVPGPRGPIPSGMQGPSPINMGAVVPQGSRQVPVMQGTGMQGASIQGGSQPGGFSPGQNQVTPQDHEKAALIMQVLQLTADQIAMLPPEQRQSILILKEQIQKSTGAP
UniProt Q9H773: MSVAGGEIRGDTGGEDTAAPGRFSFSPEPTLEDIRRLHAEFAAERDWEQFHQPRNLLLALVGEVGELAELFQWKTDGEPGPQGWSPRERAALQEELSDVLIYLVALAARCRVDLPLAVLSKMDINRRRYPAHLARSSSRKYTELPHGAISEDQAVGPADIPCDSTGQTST
UniProt Q9BTE1, whole entry, looked up: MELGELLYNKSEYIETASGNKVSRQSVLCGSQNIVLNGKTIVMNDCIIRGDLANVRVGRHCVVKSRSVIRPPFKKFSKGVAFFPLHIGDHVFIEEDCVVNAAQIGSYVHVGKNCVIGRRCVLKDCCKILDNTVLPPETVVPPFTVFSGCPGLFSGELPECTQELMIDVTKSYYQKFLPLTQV
UniProt P0DMU8: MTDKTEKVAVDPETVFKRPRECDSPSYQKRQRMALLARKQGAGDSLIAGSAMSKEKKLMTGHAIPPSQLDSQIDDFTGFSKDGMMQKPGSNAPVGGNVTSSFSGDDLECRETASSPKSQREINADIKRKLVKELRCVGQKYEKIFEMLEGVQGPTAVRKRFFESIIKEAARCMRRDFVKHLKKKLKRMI

[2] = compound: Cc1cccc(CC(=O)N2CCc3c2ccc(-c2cn(C)c4ncnc(N)c24)c3F)n1
Summary of the method: as §1

[3] = compound: Cc1cn(-c2cc(NC(=O)c3ccc(C)c(Nc4nccc(-c5cccnc5)n4)c3)cc(C(F)(F)F)c2)cn1 [nilotinib]
Summary of the method: as §1

[4] = compound: Cc1nc(Nc2n[nH]c3c2CN(C(=O)N[C@H](CN(C)C)c2ccccc2)C3(C)C)c2sccc2n1
Summary of the method: as §1

[5] = compound: Cc1nc(Nc2ncc(C(=O)Nc3c(C)cccc3Cl)s2)cc(N2CCN(CCO)CC2)n1 [dasatinib]
Summary of the method: as §1

[6] = compound: Cc1ncc(-c2ccnc(Nc3ccc(S(C)(=O)=O)cc3)n2)n1C(C)C
Summary of the method: as §1

[7] = compound: Cn1cc(-c2ccc3c(c2)CCN3C(=O)Cc2cccc(C(F)(F)F)c2)c2c(N)ncnc21
Summary of the method: as §1

[8] = compound: Cn1cc(-c2ccc3nnc(C(F)(F)c4ccc5ncccc5c4)n3n2)cn1
Summary of the method: as §1

[9] = compound: Cn1cncc1[C@@](N)(c1ccc(Cl)cc1)c1ccc2c(c1)c(-c1cccc(Cl)c1)cc(=O)n2C [tipifarnib]
Summary of the method: as §1

[10] = compound: FC(F)(F)c1ccc(/C=C/c2nc(COc3ccc(CCCCn4ccnn4)cc3)co2)cc1 [mubritinib]
Summary of the method: as §1

[11] = compound: NC(=O)Nc1cc(-c2cccc(F)c2)sc1C(=O)N[C@H]1CCCNC1
Summary of the method: as §1

[12] = compound: NC(=O)c1cnc(N[C@@H]2CCCC[C@@H]2N)nc1Nc1cccc(-n2nccn2)c1
Summary of the method: as §1

[13] = compound: NC1(c2ccc(-c3nc4ccn5c(=O)[nH]nc5c4cc3-c3ccccc3)cc2)CCC1
Summary of the method: as §1

[14] = compound: NCC(=O)Nc1ccc(-n2nc(C(F)(F)F)cc2-c2ccc3c(ccc4ccccc43)c2)cc1
Summary of the method: as §1

[15] = compound: Nc1ccccc1NC(=O)c1ccc(CNC(=O)OCc2cccnc2)cc1 [entinostat]
Summary of the method: as §1

[16] = compound: O=C(CCCCCCC(=O)Nc1ccccc1)NO [vorinostat]
Summary of the method: as §1

[17] = compound: O=C(CCCCCCNC(=O)c1cnc(N(c2ccccc2)c2ccccc2Cl)nc1)NO [citarinostat]
Summary of the method: as §1

[18] = compound: O=C(O)c1ccc2c(c1)nc(Nc1cccc(Cl)c1)c1ccncc12 [silmitasertib]
Summary of the method: as §1

[19] = compound: O=C1NC(=O)C(c2cnc3ccccn23)=C1c1cn2c3c(cc(F)cc13)CN(C(=O)N1CCCCC1)CC2
Summary of the method: as §1

[20] = compound: c1cc(OCCN2CCCCC2)cc(-c2n[nH]c3ccc(-c4nnc[nH]4)cc23)c1
Summary of the method: as §1

Measured: log2 fold change

CSTF2 (UniProt P33240)
inactive: [1] -0.05 | [2] -0.061 | [3] -0.029 | [4] 0.074 | [5] 0.007 | [6] 0.047 | [7] -0.011 | [8] -0.014 | [9] 0.028 | [10] -0.046 | [11] 0.015 | [12] -0.054 | [13] 0.086 | [14] -0.031 | [15] -0.028 | [16] -0.08 | [17] -0.011 | [18] 0.07 | [19] -0.049 | [20] -0.042

DCTPP1 (UniProt Q9H773)
inactive: [1] -0.053 | [2] 0.105 | [3] 0.008 | [4] -0.013 | [5] 0.068 | [6] -0.025 | [7] 0.073 | [8] 0.029 | [9] 0.074 | [10] 0.047 | [11] -0.051 | [12] 0.117 | [13] -0.014 | [14] 0.028 | [15] 0.062 | [16] -0.093 | [17] 0.005 | [18] -0.003 | [19] -0.001 | [20] 0.008

DCTN5 (UniProt Q9BTE1)
inactive: [1] -0.035 | [2] -0.019 | [3] -0.012 | [4] 0.032 | [5] -0.027 | [6] -0.03 | [7] -0.013 | [8] -0.004 | [9] 0.02 | [10] 0.015 | [11] -0.001 | [12] 0.009 | [13] -0.037 | [14] -0.004 | [15] -0.074 | [16] 0.003 | [17] 0.03 | [18] 0.003 | [20] -0.056

CT45A5 (UniProt P0DMU8)
inactive: [1] 0.116 | [2] -0.039 | [3] -0.069 | [4] 0.066 | [5] 0.075 | [6] -0.008 | [7] -0.09 | [8] -0.136 | [9] 0.092 | [10] -0.111 | [11] 0.053 | [12] 0.034 | [13] 0.2 | [14] 0.11 | [15] -0.058 | [16] 0.031 | [17] -0.006 | [18] 0.084 | [19] 0.195 | [20] -0.133
